Results are given in words; binding and its absence hold for the method and conditions named. In cells and extracts the contact can be indirect. A yes stands for co-enrichment or nearness to the bait. Other partners may have been found.
Target: Dynamin-related protein 1 (human (endogenous in iPS-derived neurons, fibroblasts, postmortem brain)) (UniProt O00429)
Test: affinity purification with mass spectrometry; 3 mg lysate (10 mM HEPES-NaOH pH 7.9, 150 mM NaCl, 1 mM EGTA, 1% Triton X-100) of neurons derived from HD patient iPS cells, IP with anti-Drp1 antibody overnight, protein A/G beads, LC-MS/MS; hits listed are found in HD and not in normal-subject cells

Protein sequences, listed by entry. Tags and fused reporters are not part of them. Residues count along the entry.
UniProt P14618: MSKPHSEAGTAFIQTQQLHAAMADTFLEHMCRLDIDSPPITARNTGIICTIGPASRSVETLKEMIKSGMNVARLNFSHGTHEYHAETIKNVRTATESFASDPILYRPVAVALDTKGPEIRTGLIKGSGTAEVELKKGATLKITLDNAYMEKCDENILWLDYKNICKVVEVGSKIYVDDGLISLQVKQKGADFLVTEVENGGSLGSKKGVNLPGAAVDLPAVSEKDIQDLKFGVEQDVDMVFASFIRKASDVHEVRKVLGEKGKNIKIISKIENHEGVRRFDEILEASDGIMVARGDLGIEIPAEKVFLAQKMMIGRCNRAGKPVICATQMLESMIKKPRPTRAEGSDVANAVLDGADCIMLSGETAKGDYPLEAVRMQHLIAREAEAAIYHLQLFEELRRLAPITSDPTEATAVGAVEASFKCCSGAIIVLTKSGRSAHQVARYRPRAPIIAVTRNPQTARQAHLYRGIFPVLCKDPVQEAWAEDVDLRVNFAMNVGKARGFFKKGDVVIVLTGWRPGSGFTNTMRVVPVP
UniProt P11182, residues 62-482: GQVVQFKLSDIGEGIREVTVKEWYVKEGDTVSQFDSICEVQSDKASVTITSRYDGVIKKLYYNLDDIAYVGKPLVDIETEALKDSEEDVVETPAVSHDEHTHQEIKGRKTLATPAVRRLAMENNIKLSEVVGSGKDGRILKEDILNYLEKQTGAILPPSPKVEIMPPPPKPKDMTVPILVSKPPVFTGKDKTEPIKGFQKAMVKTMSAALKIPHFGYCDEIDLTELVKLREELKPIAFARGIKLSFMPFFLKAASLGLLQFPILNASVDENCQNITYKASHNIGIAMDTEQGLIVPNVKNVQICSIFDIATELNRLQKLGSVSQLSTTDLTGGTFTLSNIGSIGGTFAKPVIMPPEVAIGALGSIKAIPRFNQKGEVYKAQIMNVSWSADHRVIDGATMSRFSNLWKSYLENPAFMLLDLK
UniProt O75947: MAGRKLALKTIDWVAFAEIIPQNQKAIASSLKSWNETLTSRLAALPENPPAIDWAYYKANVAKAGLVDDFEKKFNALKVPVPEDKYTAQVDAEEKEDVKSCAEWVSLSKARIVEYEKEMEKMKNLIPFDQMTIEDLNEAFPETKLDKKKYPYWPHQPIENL
UniProt P0DMV8: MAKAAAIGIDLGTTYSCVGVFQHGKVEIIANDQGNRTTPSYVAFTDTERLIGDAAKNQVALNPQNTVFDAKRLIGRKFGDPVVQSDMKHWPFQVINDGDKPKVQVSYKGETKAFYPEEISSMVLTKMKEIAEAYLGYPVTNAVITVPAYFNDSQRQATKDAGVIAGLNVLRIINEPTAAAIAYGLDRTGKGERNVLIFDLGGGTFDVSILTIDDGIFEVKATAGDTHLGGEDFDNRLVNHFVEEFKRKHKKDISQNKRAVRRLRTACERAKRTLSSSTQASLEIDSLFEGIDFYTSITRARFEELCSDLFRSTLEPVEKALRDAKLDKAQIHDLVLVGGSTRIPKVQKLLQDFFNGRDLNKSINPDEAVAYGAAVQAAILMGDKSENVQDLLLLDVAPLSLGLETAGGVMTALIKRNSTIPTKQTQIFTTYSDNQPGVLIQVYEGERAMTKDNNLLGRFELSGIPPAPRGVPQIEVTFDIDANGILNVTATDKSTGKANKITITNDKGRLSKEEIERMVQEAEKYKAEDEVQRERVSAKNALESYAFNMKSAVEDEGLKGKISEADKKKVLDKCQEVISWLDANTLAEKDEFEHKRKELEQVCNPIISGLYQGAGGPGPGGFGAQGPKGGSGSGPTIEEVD
UniProt P28482: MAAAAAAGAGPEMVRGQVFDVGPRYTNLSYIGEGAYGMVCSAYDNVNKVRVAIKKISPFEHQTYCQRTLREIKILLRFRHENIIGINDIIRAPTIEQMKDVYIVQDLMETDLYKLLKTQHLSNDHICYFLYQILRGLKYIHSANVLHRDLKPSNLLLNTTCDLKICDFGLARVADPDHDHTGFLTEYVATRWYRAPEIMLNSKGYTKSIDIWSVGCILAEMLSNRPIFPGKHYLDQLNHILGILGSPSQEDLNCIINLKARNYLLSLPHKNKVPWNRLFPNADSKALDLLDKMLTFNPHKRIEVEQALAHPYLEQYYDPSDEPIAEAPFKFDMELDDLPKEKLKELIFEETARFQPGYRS
UniProt P34931: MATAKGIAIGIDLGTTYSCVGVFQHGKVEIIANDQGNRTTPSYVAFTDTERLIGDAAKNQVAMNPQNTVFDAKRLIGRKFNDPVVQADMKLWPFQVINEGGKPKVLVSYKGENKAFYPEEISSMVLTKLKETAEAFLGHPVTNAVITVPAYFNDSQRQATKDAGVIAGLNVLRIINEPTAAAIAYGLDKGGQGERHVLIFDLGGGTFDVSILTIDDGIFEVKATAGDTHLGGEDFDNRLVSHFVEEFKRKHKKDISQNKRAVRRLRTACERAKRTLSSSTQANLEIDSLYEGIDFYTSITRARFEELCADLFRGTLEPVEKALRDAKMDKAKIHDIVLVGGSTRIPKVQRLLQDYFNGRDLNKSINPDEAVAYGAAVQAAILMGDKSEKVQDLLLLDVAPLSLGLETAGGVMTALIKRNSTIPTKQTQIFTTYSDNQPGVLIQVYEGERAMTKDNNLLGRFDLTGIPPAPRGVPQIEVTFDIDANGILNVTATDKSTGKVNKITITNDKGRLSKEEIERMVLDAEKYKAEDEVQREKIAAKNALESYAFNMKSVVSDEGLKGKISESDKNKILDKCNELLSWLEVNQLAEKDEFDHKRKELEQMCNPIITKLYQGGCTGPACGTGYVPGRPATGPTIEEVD
UniProt P38646, residues 47-679: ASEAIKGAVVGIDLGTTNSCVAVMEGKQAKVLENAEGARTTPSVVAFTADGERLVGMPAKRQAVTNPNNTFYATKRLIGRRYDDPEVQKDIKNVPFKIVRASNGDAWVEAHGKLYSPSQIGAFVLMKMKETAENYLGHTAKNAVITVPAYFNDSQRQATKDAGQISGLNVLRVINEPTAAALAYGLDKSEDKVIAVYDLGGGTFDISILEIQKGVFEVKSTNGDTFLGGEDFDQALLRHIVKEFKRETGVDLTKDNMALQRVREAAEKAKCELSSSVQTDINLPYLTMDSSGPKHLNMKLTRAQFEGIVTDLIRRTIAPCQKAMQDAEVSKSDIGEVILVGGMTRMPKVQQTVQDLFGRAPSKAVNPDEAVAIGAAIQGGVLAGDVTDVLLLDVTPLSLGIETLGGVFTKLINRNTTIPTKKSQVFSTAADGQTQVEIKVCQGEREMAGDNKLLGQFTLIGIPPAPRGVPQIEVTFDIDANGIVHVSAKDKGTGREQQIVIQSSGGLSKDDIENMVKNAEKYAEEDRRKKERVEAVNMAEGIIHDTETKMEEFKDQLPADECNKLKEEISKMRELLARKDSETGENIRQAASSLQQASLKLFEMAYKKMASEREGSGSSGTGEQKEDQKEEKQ
UniProt O75964: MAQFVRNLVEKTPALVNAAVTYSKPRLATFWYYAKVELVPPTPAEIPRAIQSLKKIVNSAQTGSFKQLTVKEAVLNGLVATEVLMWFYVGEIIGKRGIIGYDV
UniProt Q07021, residues 74-282: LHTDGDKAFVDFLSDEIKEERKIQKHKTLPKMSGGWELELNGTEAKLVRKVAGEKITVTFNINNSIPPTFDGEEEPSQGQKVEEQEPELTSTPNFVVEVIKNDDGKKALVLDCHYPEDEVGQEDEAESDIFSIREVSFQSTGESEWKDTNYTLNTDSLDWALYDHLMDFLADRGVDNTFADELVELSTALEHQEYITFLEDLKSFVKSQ
UniProt P67775: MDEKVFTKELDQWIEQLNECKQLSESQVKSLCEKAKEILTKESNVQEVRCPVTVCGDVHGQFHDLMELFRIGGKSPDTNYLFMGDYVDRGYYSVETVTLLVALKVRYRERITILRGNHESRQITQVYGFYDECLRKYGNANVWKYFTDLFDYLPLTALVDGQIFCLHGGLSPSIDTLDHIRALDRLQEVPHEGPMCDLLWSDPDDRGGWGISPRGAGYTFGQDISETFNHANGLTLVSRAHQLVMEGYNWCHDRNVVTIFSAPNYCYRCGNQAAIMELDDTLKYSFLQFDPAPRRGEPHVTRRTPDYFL
UniProt P54652: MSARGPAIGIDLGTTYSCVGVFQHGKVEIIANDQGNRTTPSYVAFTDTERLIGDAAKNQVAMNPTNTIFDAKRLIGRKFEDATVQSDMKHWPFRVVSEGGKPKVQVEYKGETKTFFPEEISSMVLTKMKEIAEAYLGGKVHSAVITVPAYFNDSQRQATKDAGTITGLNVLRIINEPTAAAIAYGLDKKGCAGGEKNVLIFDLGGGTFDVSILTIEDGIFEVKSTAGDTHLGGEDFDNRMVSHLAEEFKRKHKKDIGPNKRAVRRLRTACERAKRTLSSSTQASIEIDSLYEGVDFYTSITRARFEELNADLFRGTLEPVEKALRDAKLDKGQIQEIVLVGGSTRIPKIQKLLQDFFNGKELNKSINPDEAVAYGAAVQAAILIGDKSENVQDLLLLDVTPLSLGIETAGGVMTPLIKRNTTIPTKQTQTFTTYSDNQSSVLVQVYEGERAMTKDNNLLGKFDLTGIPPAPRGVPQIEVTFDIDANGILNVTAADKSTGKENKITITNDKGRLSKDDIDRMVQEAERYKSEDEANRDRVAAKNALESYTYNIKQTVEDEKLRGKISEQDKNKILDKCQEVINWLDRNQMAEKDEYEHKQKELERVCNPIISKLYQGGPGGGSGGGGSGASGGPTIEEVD

Substance	binding
Pyruvate kinase isozymes M1/M2 (from UniProt P14618 1-531)	binds
Lipoamide acyltransferase component of branched-chain alpha-keto acid dehydrogenase complex, mitochondrial (from UniProt P11182 62-482)	binds
ATP synthase subunit d, mitochondrial (from UniProt O75947 1-161)	binds
Creatine kinase U-type, mitochondrial (from UniProt P12532 40-417)	binds
Heat shock 70 kDa protein 1 A/1B (from UniProt P0DMV8 1-641)	binds
Mitogen-activated protein kinase 1 (from UniProt P28482 1-360)	binds
Heat shock 70 kDa protein 1-like (from UniProt P34931 1-641)	binds
B-cell CLL/lymphoma 7 protein family member C (from UniProt Q8WUZ0 1-217)	binds
Stress-70 protein, mitochondrial (from UniProt P38646 47-679)	binds

The next lines start with the values.

binding	Substance
binds	ATP synthase subunit g, mitochondrial (from UniProt O75964 1-103)
binds	Complement component 1 Q subcomponent-binding protein, mitochondrial (from UniProt Q07021 74-282)
binds	Serine/threonine-protein phosphatase 2 A catalytic subunit alpha isoform (from UniProt P67775 1-309)
binds	Heat shock-related 70 kDa protein 2 (from UniProt P54652 1-639)
